In the supplement of paper PMC12819154, “High-throughput peptide-centric local stability assay extends protein–ligand identification to membrane proteins, tissues and bacteria” (Nature Structural & Molecular Biology, 2025):
The list shows a part of the results. Most entries show no effect beyond the scatter of the controls.

Amino acid sequences for entries named in this document (tags omitted). A change or cut given only in a name is not applied to a line headed by its entry.
UniProt Q9DBH5: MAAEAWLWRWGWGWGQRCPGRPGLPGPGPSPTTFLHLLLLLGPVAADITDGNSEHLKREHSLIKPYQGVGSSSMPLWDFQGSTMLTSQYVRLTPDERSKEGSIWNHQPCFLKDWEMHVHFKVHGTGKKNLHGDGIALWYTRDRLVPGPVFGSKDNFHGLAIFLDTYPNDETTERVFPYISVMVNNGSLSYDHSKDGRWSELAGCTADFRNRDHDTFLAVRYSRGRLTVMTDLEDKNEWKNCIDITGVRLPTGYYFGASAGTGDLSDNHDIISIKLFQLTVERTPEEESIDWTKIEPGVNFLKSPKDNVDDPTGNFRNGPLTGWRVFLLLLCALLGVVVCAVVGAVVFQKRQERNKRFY
UniProt Q9DBS5: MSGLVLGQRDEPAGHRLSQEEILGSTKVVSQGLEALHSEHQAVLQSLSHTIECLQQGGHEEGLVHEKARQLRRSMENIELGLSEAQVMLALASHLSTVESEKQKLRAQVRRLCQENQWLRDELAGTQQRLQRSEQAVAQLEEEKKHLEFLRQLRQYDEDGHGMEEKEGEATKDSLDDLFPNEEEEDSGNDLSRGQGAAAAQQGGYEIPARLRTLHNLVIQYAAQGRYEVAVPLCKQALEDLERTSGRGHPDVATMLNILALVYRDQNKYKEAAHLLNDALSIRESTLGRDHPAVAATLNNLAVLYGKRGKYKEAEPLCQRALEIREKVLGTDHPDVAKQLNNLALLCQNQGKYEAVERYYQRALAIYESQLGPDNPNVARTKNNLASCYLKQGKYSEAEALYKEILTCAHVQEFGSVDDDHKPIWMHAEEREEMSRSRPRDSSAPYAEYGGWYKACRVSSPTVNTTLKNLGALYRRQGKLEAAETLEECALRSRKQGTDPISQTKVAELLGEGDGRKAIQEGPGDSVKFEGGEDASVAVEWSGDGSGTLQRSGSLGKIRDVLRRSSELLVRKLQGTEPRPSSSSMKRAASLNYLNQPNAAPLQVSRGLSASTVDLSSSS
UniProt Q9DBN4: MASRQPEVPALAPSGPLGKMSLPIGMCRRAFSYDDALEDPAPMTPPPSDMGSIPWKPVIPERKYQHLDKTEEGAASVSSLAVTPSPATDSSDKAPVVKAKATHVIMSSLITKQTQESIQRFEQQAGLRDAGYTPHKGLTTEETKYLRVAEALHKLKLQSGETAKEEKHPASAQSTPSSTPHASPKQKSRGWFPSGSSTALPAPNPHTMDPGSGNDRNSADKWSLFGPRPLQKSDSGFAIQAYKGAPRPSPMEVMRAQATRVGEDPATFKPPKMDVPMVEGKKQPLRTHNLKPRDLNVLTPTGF
UniProt Q9DC29: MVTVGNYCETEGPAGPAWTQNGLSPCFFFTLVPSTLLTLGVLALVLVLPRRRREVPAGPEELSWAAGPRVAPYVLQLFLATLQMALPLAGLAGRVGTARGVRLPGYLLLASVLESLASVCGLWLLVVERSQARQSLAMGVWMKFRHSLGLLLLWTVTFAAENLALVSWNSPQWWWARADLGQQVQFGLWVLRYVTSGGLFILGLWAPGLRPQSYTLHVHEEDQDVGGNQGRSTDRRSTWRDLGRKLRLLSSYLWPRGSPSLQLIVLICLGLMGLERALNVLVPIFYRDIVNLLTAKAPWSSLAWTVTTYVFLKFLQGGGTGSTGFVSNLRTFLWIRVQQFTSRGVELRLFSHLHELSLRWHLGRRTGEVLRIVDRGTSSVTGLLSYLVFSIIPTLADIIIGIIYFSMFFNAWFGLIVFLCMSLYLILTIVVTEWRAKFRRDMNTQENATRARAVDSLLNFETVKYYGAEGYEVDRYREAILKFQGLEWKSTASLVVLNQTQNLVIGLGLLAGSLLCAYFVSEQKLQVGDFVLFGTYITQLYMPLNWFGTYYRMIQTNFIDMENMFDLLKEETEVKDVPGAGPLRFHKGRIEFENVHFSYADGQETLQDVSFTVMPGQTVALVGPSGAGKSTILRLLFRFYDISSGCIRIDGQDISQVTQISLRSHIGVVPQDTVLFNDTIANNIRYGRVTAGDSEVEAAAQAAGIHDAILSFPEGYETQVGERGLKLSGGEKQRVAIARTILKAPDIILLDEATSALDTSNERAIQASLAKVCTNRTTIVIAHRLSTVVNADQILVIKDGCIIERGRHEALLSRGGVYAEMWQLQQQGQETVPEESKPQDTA
UniProt Q9EPB8: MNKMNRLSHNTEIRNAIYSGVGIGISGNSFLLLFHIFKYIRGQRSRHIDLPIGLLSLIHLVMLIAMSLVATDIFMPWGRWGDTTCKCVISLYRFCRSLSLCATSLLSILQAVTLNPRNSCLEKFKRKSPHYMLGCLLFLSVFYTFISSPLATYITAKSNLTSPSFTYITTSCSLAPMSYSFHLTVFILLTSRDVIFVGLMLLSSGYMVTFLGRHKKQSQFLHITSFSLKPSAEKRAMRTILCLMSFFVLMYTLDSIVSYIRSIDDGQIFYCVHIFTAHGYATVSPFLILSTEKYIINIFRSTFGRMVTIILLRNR
UniProt Q9EP73, whole entry: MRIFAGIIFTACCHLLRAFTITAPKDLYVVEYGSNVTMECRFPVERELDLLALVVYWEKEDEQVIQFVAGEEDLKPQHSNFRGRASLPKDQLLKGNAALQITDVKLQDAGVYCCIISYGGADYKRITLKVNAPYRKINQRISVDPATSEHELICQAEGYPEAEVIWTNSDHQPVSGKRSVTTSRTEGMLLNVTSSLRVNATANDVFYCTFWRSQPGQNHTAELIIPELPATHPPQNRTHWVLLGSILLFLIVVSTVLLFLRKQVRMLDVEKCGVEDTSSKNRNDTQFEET
UniProt Q9DBX2: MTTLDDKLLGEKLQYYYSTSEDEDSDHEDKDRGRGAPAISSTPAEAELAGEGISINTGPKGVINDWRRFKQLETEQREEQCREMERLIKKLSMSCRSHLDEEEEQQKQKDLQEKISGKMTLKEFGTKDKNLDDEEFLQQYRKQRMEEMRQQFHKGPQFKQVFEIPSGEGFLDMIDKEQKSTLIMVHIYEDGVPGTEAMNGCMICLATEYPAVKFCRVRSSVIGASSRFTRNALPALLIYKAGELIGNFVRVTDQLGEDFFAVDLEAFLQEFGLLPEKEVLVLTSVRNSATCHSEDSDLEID
UniProt Q9DB40: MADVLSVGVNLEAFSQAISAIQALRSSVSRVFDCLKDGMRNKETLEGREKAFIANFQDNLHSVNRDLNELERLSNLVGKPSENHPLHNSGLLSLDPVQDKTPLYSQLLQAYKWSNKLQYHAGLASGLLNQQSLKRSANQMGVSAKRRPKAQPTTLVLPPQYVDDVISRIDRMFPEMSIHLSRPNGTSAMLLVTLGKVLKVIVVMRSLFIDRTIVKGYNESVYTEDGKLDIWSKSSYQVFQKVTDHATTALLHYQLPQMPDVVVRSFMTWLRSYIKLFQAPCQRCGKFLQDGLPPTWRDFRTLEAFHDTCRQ
UniProt Q9DD06: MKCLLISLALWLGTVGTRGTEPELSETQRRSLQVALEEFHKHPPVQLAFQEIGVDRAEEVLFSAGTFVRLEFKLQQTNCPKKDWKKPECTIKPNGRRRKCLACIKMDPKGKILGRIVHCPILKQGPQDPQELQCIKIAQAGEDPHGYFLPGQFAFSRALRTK
UniProt Q9DB20: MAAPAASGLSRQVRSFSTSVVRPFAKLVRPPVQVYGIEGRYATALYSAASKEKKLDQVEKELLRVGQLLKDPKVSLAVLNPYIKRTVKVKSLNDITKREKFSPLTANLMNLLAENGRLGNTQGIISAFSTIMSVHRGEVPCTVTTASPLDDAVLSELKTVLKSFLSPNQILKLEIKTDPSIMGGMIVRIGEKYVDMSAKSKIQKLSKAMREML
UniProt Q9DCJ1, whole entry: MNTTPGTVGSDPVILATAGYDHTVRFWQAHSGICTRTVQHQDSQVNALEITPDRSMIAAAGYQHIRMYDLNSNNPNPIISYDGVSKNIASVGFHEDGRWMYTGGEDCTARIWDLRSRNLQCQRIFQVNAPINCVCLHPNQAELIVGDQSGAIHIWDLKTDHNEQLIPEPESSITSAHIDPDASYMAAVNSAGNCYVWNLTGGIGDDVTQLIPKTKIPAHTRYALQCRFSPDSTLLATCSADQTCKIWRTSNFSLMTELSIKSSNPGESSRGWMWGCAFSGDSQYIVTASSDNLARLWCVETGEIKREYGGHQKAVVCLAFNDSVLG
UniProt Q9DAU9: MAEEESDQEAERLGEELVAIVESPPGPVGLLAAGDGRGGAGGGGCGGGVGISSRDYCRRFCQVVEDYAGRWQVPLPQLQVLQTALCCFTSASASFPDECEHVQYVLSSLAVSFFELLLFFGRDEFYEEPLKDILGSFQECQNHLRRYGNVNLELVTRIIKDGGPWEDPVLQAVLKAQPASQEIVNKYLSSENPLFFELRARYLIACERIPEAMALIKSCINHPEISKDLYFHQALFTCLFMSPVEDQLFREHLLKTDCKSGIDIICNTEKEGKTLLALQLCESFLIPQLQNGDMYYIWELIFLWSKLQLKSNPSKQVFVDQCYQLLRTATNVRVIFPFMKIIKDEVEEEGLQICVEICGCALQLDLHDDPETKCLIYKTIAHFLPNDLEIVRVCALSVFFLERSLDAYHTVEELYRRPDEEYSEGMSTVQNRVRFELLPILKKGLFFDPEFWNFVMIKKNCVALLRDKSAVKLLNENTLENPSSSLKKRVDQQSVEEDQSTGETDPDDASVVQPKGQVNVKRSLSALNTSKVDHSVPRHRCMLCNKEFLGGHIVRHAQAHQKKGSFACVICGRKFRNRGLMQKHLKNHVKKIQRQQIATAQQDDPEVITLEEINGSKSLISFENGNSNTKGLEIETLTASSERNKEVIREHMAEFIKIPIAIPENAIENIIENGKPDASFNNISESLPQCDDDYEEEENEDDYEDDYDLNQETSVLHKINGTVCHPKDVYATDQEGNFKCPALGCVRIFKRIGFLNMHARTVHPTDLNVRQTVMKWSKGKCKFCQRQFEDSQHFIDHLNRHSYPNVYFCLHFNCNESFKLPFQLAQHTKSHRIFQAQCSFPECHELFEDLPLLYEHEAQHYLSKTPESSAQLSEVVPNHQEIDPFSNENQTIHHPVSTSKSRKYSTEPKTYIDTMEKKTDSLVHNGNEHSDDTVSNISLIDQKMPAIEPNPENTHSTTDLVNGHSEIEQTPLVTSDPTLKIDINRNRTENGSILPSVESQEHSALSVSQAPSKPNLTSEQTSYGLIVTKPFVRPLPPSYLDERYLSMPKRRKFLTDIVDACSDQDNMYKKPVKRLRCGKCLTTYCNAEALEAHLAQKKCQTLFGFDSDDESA
UniProt Q9DCD0: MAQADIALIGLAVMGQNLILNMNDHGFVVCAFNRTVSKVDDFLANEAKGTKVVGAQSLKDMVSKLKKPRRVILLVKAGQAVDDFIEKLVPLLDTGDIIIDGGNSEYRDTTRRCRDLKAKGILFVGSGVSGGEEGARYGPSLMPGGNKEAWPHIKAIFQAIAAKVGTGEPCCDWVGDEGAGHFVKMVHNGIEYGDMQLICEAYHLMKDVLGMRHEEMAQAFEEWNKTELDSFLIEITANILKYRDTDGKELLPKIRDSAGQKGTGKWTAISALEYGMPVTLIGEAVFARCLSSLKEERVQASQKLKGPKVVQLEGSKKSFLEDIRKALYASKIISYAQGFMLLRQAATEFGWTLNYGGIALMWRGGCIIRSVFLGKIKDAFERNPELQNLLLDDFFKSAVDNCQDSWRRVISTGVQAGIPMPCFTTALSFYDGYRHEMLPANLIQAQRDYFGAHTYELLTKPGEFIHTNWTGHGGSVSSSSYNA
UniProt Q9DBM1: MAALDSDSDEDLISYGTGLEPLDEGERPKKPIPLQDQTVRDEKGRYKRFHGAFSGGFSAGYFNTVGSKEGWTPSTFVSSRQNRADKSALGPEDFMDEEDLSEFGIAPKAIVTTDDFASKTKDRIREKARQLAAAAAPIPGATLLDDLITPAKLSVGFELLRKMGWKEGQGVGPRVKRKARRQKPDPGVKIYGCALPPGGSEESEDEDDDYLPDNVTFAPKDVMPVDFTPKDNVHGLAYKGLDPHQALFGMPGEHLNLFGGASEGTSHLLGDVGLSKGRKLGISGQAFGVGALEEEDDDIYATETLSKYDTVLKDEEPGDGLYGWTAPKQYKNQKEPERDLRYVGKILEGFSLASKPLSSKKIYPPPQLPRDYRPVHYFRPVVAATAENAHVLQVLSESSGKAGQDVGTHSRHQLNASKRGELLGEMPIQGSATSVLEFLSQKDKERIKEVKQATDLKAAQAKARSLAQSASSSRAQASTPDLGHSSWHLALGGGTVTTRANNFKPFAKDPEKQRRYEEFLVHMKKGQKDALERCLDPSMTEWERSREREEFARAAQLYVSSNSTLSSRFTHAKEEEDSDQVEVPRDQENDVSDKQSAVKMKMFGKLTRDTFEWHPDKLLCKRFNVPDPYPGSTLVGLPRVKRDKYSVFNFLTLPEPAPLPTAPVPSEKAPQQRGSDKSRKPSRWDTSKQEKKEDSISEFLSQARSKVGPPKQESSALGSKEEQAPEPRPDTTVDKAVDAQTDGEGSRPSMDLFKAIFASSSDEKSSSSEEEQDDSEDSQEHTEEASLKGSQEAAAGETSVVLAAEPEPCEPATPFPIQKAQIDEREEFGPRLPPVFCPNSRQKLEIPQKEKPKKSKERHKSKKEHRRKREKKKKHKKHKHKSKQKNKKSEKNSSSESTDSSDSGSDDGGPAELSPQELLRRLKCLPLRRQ

compound: CN[C@@H]1C[C@H]2O[C@@](C)([C@@H]1OC)n1c3ccccc3c3c4c(c5c6ccccc6n2c5c31)C(=O)NC4 [staurosporine]; assay: log2 fold change of tryptic peptide abundance, ligand vs vehicle (limited proteolysis) (log2 ratio); higher = more trypsin-susceptible (destabilized); settings: ligand concentration: 20 uM; sample: mouse liver crude lysate; replicate design: treated separately

Q: For “UniProt Q9DBH5 (peptide sequence: DNVDDPTGNFR, peptide start residue: 306)”, which log2 fold change is on record?
A: 0.346

Q: For “UniProt Q9DBE8 (peptide sequence: ILVNSQYTASVFKETFK, peptide start residue: 173)”, which log2 fold change is on record?
A: 0.173

Q: Which log2 fold change does the source give for “UniProt Q9DBS5 (peptide sequence: KQGTDPISQTK, peptide start residue: 495)” here?
A: -0.187

Q: With “UniProt Q9DBC7 (peptide sequence: VSILESLDKWER, peptide start residue: 253)” as the target, how does the log2 fold change read?
A: 0.163

Q: With “UniProt Q9DBN4 (peptide sequence: VGEDPATFKPPK, peptide start residue: 261)” as the target, how does the log2 fold change read?
A: 0.27

Q: For “UniProt Q9DC29 (peptide sequence: LFSHLHELSLR, peptide start residue: 349)”, which log2 fold change is on record?
A: 0.107

Q: With “UniProt Q9DCC3 (peptide sequence: GPAVNGEQPLKV, peptide start residue: 231)” as the target, how does the log2 fold change read?
A: -0.426

Q: With “UniProt Q9DBC0 (peptide sequence: GAGPTPFSR, peptide start residue: 178)” as the target, how does the log2 fold change read?
A: 0.21

Q: “UniProt Q9EPB8 (peptide sequence: YIINIFR, peptide start residue: 294)” was tested. Which log2 fold change did it give?
A: 0.0623

Q: How did the log2 fold change turn out when “UniProt Q9EP73 (peptide sequence: MLDVEKCGVEDTSSK, peptide start residue: 266)” was run?
A: -0.119

Q: With “UniProt Q9EP89 (peptide sequence: AKVEQDSEAR, peptide start residue: 269)” as the target, how does the log2 fold change read?
A: -0.114

Q: With “UniProt Q9DBX2 (peptide sequence: DKNLDDEEFLQQYRK, peptide start residue: 128)” as the target, how does the log2 fold change read?
A: 0.315

Q: For “UniProt Q9DCB4 (peptide sequence: SIEEREEEYQR, peptide start residue: 283)”, which log2 fold change is on record?
A: 0.035

Q: For “UniProt Q9EP97 (peptide sequence: TITYFDSQR, peptide start residue: 471)”, which log2 fold change is on record?
A: -0.233

Q: With “UniProt Q9DB40 (peptide sequence: LQYHAGLASGLLNQQSLKR, peptide start residue: 117)” as the target, how does the log2 fold change read?
A: 0.0365

Q: “UniProt Q9DC37 (peptide sequence: EADSAVHGAPR, peptide start residue: 17)” was tested. Which log2 fold change did it give?
A: -0.0361

Q: “UniProt Q9DD06 (peptide sequence: KPECTIKPNGR, peptide start residue: 86)” was tested. Which log2 fold change did it give?
A: -0.114

Q: “UniProt Q9DB20 (peptide sequence: LVRPPVQVYGIEGR, peptide start residue: 27)” was tested. Which log2 fold change did it give?
A: 0.128

Q: Which log2 fold change does the source give for “UniProt Q9DCJ1 (peptide sequence: NIASVGFHEDGR, peptide start residue: 87)” here?
A: 0.472

Q: How did the log2 fold change turn out when “UniProt Q9EP75 (peptide sequence: AEGGLWLRVEPLSAGAH, peptide start residue: 508)” was run?
A: 0.131

Q: “UniProt Q9DAU9 (peptide sequence: TYIDTMEKK, peptide start residue: 910)” was tested. Which log2 fold change did it give?
A: 0.561

Q: Which log2 fold change does the source give for “UniProt Q9DB52 (peptide sequence: KCEMETDYQPKR, peptide start residue: 202)” here?
A: -0.178

Q: With “UniProt Q9DCD0 (peptide sequence: YGPSLMPGGNK, peptide start residue: 137)” as the target, how does the log2 fold change read?
A: 0.185

Q: With “UniProt Q9DBM1 (peptide sequence: AIVTTDDFASK, peptide start residue: 109)” as the target, how does the log2 fold change read?
A: -0.29

Q: How did the log2 fold change turn out when “UniProt Q9DCX8 (peptide sequence: KALDQIMVTV, peptide start residue: 276)” was run?
A: 0.671

Q: How did the log2 fold change turn out when “UniProt Q9DBZ5 (peptide sequence: ALTNLPHTDFTLCK, peptide start residue: 73)” was run?
A: -0.713

Q: Which log2 fold change does the source give for “UniProt Q9DBF1 (peptide sequence: QGGTVVYGGK, peptide start residue: 391)” here?
A: -0.201

Q: For “UniProt Q9EPR4 (peptide sequence: SSDKDSQATV, peptide start residue: 639)”, which log2 fold change is on record?
A: -0.274
